Test results taken from paper PMC4479446.
Results are given in words; binding and its absence hold for the method and conditions named. Binding seen in cells or lysates may run through a third protein. Some results given as binding are weak or reduced against the parent protein; the word gives no strength.

By UniProt entry, the sequences of proteins in these tests, tags left out.
UniProt P35222: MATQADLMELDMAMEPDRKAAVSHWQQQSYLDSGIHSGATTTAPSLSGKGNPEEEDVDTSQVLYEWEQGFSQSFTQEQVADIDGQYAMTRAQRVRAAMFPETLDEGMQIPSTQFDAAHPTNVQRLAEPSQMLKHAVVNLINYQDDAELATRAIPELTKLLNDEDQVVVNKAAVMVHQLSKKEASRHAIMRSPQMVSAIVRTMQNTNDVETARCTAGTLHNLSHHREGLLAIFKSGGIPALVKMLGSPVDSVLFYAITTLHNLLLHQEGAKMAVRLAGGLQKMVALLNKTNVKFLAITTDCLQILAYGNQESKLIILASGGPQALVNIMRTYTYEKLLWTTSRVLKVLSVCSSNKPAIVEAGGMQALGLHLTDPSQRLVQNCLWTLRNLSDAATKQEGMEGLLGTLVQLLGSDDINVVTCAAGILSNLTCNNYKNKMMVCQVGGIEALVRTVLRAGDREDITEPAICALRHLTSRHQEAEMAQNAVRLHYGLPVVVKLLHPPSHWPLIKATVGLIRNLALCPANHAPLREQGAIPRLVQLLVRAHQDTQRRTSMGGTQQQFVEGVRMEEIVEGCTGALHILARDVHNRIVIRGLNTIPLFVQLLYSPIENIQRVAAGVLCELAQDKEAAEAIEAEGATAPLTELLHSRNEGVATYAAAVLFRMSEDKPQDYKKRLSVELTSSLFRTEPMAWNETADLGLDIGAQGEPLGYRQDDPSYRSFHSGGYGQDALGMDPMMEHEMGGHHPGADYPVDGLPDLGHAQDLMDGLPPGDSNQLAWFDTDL

Target: β-catenin (human (endogenous in Caco-2)) (UniProt P35222)
Assay: co-IP; Caco-2 cell extracts after 6 h of the indicated treatments (AEE788 2.5 µM and/or celecoxib 10 µM); IP with β-catenin antibody or control IgG, Protein A/G gel, 4°C; co-IP buffer 10 mM HEPES, 10 mM KCl, 1.5 mM MgCl2, 0.5 mM DTT, 0.075% NP40; IB with FOXM1 antibody

B1: forkhead box M1 (FOXM1) transcription factor (protein, UniProt Q08050 1-763)
chain: MKTSPRRPLILKRRRLPLPVQNAPSETSEEEPKRSPAQQESNQAEASKEVAESNSCKFPAGIKIINHPTMPNTQVVAIPNNANIHSIITALTAKGKESGSSGPNKFILISCGGAPTQPPGLRPQTQTSYDAKRTEVTLETLGPKPAARDVNLPRPPGALCEQKRETCADGEAAGCTINNSLSNIQWLRKMSSDGLGSRSIKQEMEEKENCHLEQRQVKVEEPSRPSASWQNSVSERPPYSYMAMIQFAINSTERKRMTLKDIYTWIEDHFPYFKHIAKPGWKNSIRHNLSLHDMFVRETSANGKVSFWTIHPSANRYLTLDQVFKPLDPGSPQLPEHLESQQKRPNPELRRNMTIKTELPLGARRKMKPLLPRVSSYLVPIQFPVNQSLVLQPSVKVPLPLAASLMSSELARHSKRVRIAPKVLLAEEGIAPLSSAGPGKEEKLLFGEGFSPLLPVQTIKEEEIQPGEEMPHLARPIKVESPPLEEWPSPAPSFKEESSHSWEDSSQSPTPRPKKSYSGLRSPTRCVSEMLVIQHRERRERSRSRRKQHLLPPCVDEPELLFSEGPSTSRWAAELPFPADSSDPASQLSYSQEVGGPFKTPIKETLPISSTPSKSVLPRTPESWRLTPPAKVGGLDFSPVQTSQGASDPLPDPLGLMDLSTTPLQSAPPLESPQRLLSSEPLDLISVPFGNSSPSDIDVPKPGSPEPQVSGLAANRSLTEGLVLDTMNDSLSKILLDISFPGLDEDPLGPDNINWSQFIPELQ
binding: binds
